In assay [1] the target is bacterial SCS (succinyl-CoA synthetase, E. coli), 3-pHis form (E. coli) (UniProt P0AGE9). The assay is described as follows: slot blot and immunoblot of E. coli lysate. Background: In western blotting, separated proteins are transferred to a membrane and probed.
Assay [2] shares this target. The experiment in a line: immunoblot of E. coli lysate.

Amino acid sequences for entries named in this document (tags omitted). Residues count along the entry.
UniProt P0AGE9, residues 2-289: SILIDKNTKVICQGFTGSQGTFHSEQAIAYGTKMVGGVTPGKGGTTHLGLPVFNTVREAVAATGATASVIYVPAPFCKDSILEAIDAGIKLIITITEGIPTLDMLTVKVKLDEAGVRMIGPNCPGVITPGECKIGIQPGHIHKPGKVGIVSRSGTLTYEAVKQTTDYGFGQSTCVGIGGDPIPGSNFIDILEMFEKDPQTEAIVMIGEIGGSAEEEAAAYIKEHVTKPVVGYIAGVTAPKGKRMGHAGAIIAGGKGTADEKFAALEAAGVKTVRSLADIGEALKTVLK

No constants are given. Whether binding was seen depends on the method and setting. Some binding calls cover weakened binding; strength is not graded here. Where a sequence is shown, tags or fusion partners need not be part of it.

B1: 3-pHis mAb SC44-8 (antibody, V domains shown)
VH: ESGRGLVQPGGSLTLTCTASGFSIDSYGFSWVRQAPGKGLEHIGYLTAGGRAFYASWAKSRSTITRNTNENTVTLKMTSLTAADTATYFCAKLGSGNPVAIWGPGTLVTVSS
VL: DPVMTPTPSFTSAAVGGTVTINCQSSQSVWRNKNLAWYQQKPGQPPKRLIYAIATLDSGVPSRFSGSGSGTQFTLTISDVQCDDAATYYCVGHYGSENDAYYAFGGGTEVVVKG
Turning to B1, the binding result in assay [1] and in assay [2] was “binds” throughout.
